Assay results taken from patent publication US20130224187A1 (Alexion, published 2013).
Results are given in words; binding and its absence hold for the method and conditions named. Binding seen in cells or lysates may run through a third protein. Some entries that bind do so weakly or less than the wild type.

T1: rhesus macaque C5a (rhesus macaque)
T1 sequence: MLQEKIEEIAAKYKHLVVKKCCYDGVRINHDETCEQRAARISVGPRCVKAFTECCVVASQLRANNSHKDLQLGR

T2: cynomolgus macaque C5a (cynomolgus macaque)
T2 construct: also called recombinant cynomolgus macaque C5a; cynomolgus C5a
T2 chain: T1 sequence

B1: BNJ369 (antibody, human IgG2, kappa)
heavy: QVQLVQSGAEVKKPGASVKVSCKASGYTFTDYSMDWVRQAPGQGLEWMGAIHLNTGYTNYNQKFKGRVTMTRDTSTSTVYMELSSLRSEDTAVYYCARGFYDGYSPMDYWGQGTTVTVSSASTKGPSVFPLAPCSRSTSESTAALGCLVKDYFPEPVTVSWNSGALTSGVHTFPAVLQSSGLYSLSSVVTVPSSNFGTQTYTCNVDHKPSNTKVDKTVERKCCVECPPCPAPPVAGPSVFLFPPKPKDTLMISRTPEVTCVVVDVSQEDPEVQFNWYVDGVEVHNAKTKPREEQFNSTYRVVSVLTVLHQDWLNGKEYKCKVSNKGLPSSIEKTISKAKGQPREPQVYTLPPSQEEMTKNQVSLTCLVKGFYPSDIAVEWESNGQPENNYKTTPPVLDSDGSFFLYSRLTVDKSRWQEGNVFSCSVMHEALHNHYTQKSLSLSLGK
light: DIVMTQSPDSLAVSLGERATINCRASESVDSYGNSFMHWYQQKPGQPPKLLIYRASNLESGVPDRFSGSGSGTDFTLTISSLQAEDVAVYYCQQSNEDPYTFGGGTKVEIKRTVAAPSVFIFPPSDEQLKSGTASVVCLLNNFYPREAKVQWKVDNALQSGNSQESVTEQDSKDSTYSLSSTLTLSKADYEKHKVYACEVTHQGLSSPVTKSFNRGEC
notes: Humanized full length IgG
B2: BNJ366 (antibody, human IgG2, kappa)
heavy: QVQLVQSGAEVKKPGASVKVSCKASGYTFTDYSMDWVRQAPGQGLEWMGAIHLNTGYTNYNQKFKGRVTMTRDTSTSTVYMELSSLRSEDTAVYYCARGFYDGYSPMDYWGQGTTVTVSSASTKGPSVFPLAPCSRSTSESTAALGCLVKDYFPEPVTVSWNSGALTSGVHTFPAVLQSSGLYSLSSVVTVPSSNFGTQTYTCNVDHKPSNTKVDKTVERKCCVECPPCPAPPVAGPSVFLFPPKPKDTLMISRTPEVTCVVVDVSHEDPEVQFNWYVDGVEVHNAKTKPREEQFNSTFRVVSVLTVVHQDWLNGKEYKCKVSNKGLPAPIEKTISKTKGQPREPQVYTLPPSREEMTKNQVSLTCLVKGFYPSDISVEWESNGQPENNYKTTPPMLDSDGSFFLYSKLTVDKSRWQQGNVFSCSVMHEALHNHYTQKSLSLSPGK
light: B1 light
notes: Humanized full length IgG
B3: BNJ364 (antibody, human IgG2, kappa)
heavy: QVQLVQSGAEVKKPGASVKVSCKASGYTFTDYSMDWVRQAPGQGLEWMGAINPNSGGTNYNQKFKDRVTMTRDTSTSTVYMELSSLRSEDTAVYYCARSGSYDGYYAMDYWGQGTTVTVSSASTKGPSVFPLAPCSRSTSESTAALGCLVKDYFPEPVTVSWNSGALTSGVHTFPAVLQSSGLYSLSSVVTVPSSNFGTQTYTCNVDHKPSNTKVDKTVERKCCVECPPCPAPPVAGPSVFLFPPKPKDTLMISRTPEVTCVVVDVSHEDPEVQFNWYVDGVEVHNAKTKPREEQFNSTFRVVSVLTVVHQDWLNGKEYKCKVSNKGLPAPIEKTISKTKGQPREPQVYTLPPSREEMTKNQVSLTCLVKGFYPSDISVEWESNGQPENNYKTTPPMLDSDGSFFLYSKLTVDKSRWQQGNVFSCSVMHEALHNHYTQKSLSLSPGK
light: B1 light
notes: Humanized full length IgG

target: T1, rhesus macaque C5a (rhesus macaque); assay: co-immunoprecipitation from zymosan-activated serum with protein A beads; western blot with anti-C5a neoepitope antibody

Binder	binding
B1	binds
B2	binds
B3	binds

Target: T2, cynomolgus macaque C5a
Assay: as above

Binder	binding
B1	binds
B2	binds
B3	binds
